According to the supplement of paper PMC6143611:
Structures can show the parent of a compound that is named as a salt. ± gives the uncertainty stated by the source. Some of the results follow. Part of the spread comes from offsets between plates or batches.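 A heat-shock-induced fluorescent stripe was set in larval rod outer segments at 6 dpf. Shedding distance ran from stripe to outer segment tip, measured by confocal stacks in about three fish per compound. Controls: 0.2% DMSO vehicle. Flagged compounds showed ≥20% change from same-week control, p < 0.001 (Dunnett test on mixed-effects models).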

Legend:
[1] = tested on: Danio rerio larva rod photoreceptor outer segment; test: rod outer segment growth distance Dg, difference from same-week DMSO control mean; higher = more outer segment growth; settings: 20 µM; treatment time: 4 days (6-10 dpf)
[2] = tested on: Danio rerio larva rod photoreceptor outer segment; test: rod outer segment shedding distance Ds, difference from same-week DMSO control mean; higher = less outer segment shedding; settings: 20 µM; treatment time: 4 days (6-10 dpf)

Question: With `C#Cc1cccc(Nc2ncnc3cc(OC)c(OCCCCCCC(=O)NO)cc23)c1` as the molecule, how does the “rod outer segment growth distance Dg” value [1] read?
Answer: The value was -0.06 ± 0.21 um.

Question: What about the “rod outer segment shedding distance Ds” value [2] of the same molecule?
Answer: The value was -1.62 ± 0.27 um.

Question: Which results are given for `CC(C)(C)OC(=O)N[C@H]1CCCCC/C=C\[C@@H]2C[C@@]2(C(=O)NS(=O)(=O)C2CC2)NC(=O)[C@@H]2C[C@@H](OC(=O)N3Cc4cccc(F)c4C3)CN2C1=O` [Danoprevir (ITMN-191)]?
Answer: rod outer segment growth distance Dg [1]: -0.2 ± 0.18 um; rod outer segment shedding distance Ds [2]: -1.26 ± 0.25 um

Question: Which “rod outer segment growth distance Dg” value [1] does the source give for `CCN(CC)CCCCNc1ncc2cc(-c3cc(OC)cc(OC)c3)c(NC(=O)NC(C)(C)C)nc2n1` here?
Answer: The value was -0.19 ± 0.23 um.

Question: What about the “rod outer segment shedding distance Ds” value [2] of the same molecule?
Answer: Its value is -0.44 ± 0.23 um.

Question: Which “rod outer segment growth distance Dg” value [1] does the source give for `CN1CCN(c2c(F)cc3c(=O)c(C(=O)O)cn4c3c2OCN4C)CC1` [Marbofloxacin] here?
Answer: The value was -0.47 ± 0.17 um.

Question: And the “rod outer segment shedding distance Ds” value [2]?
Answer: Its value is -0.71 ± 0.18 um.

Question: What does the source list for `CC12CC3CC(C)(C1)CC(N)(C3)C2` [Memantine HCl]?
Answer: rod outer segment growth distance Dg [1]: 0.48 ± 0.28 um; rod outer segment shedding distance Ds [2]: 0.13 ± 0.27 um

Question: How did the “rod outer segment growth distance Dg” value [1] turn out when `CO[C@H]1C[C@@H]2CC[C@@H](C)[C@@](O)(O2)C(=O)C(=O)N2CCCC[C@H]2C(=O)O[C@H]([C@H](C)C[C@@H]2CC[C@@H](O)[C@H](OC)C2)CC(=O)[C@H](C)/C=C(\C)[C@@H](O)[C@@H](OC)C(=O)[C@H](C)C[C@H](C)/C=C/C=C/C=C/1C` [Rapamycin (Sirolimus)] was run?
Answer: Its value is -1.23 ± 0.18 um.

Question: And the “rod outer segment shedding distance Ds” value [2]?
Answer: Its value is -1.13 ± 0.22 um.

Question: Which results are given for `COc1cc([C@@H]2c3cc4c(cc3[C@@H](O[C@@H]3O[C@@H]5CO[C@@H](c6cccs6)O[C@H]5[C@H](O)[C@H]3O)[C@H]3COC(=O)[C@H]23)OCO4)cc(OC)c1O` [Teniposide]?
Answer: rod outer segment growth distance Dg [1]: -0.95 ± 0.21 um; rod outer segment shedding distance Ds [2]: -0.29 ± 0.13 um

Question: Which results are given for `NCC(=O)CCC(=O)O` [5-Aminolevulinic acid HCl]?
Answer: rod outer segment growth distance Dg [1]: -0.84 ± 0.23 um; rod outer segment shedding distance Ds [2]: -0.27 ± 0.16 um

Question: Which results are given for `CCOC(=O)[C@H](CCc1ccccc1)N[C@@H](C)C(=O)N1[C@H](C(=O)O)C[C@@H]2CCC[C@@H]21` [Ramipril]?
Answer: rod outer segment growth distance Dg [1]: 0.27 ± 0.21 um; rod outer segment shedding distance Ds [2]: -0.26 ± 0.13 um

Question: `O=C(O)/C=C/c1ccc(Cn2ccnc2)cc1` [Ozagrel HCl] was tested. Which “rod outer segment growth distance Dg” value [1] did it give?
Answer: Its value is 0.05 ± 0.21 um.

Question: What about the “rod outer segment shedding distance Ds” value [2] of the same molecule?
Answer: The value was 0.29 ± 0.22 um.

Question: Which “rod outer segment growth distance Dg” value [1] does the source give for `C[C@H](NC(=O)[C@@H](O)c1cc(F)cc(F)c1)C(=O)N[C@@H]1C(=O)N(C)c2ccccc2-c2ccccc21` here?
Answer: The value was -2.24 ± 0.17 um.

Question: What about the “rod outer segment shedding distance Ds” value [2] of the same molecule?
Answer: Its value is -0.76 ± 0.12 um.

Question: How did the “rod outer segment growth distance Dg” value [1] turn out when `OC[C@@H](O)[C@@H](O)[C@@H](O)CO` [Ribitol] was run?
Answer: Its value is -0.36 ± 0.18 um.

Question: What about the “rod outer segment shedding distance Ds” value [2] of the same molecule?
Answer: The value was -0.24 ± 0.099 um.

Question: Which “rod outer segment growth distance Dg” value [1] does the source give for `O=C(NC1CCOCC1)c1ccc(-c2cc(-c3c[nH]nc3-c3ccccn3)ccn2)cc1` here?
Answer: The value was -0.82 ± 0.15 um.

Question: And the “rod outer segment shedding distance Ds” value [2]?
Answer: Its value is -0.18 ± 0.13 um.

Question: Which “rod outer segment growth distance Dg” value [1] does the source give for `COc1ccccc1OCC(O)CN1CCN(CC(=O)Nc2c(C)cccc2C)CC1` (configuration not stated) [Ranolazine] here?
Answer: The value was -0.67 ± 0.24 um.

Question: And the “rod outer segment shedding distance Ds” value [2]?
Answer: Its value is -0.03 ± 0.15 um.

Question: How did the “rod outer segment growth distance Dg” value [1] turn out when `COc1ccc(CC(C)NCC(O)c2ccc(O)c(NC=O)c2)cc1` (configuration not stated) [Formoterol Hemifumarate] was run?
Answer: The value was -0.12 ± 0.25 um.

Question: What about the “rod outer segment shedding distance Ds” value [2] of the same molecule?
Answer: Its value is -0.34 ± 0.28 um.

Question: How did the “rod outer segment growth distance Dg” value [1] turn out when `COc1ccc([C@H]2CNC(=O)C2)cc1OC1CCCC1` [S- (+)-Rolipram] was run?
Answer: Its value is 0.3 ± 0.19 um.

Question: What about the “rod outer segment shedding distance Ds” value [2] of the same molecule?
Answer: Its value is -1.43 ± 0.23 um.

Question: What does the source list for `CC(C)(Sc1cc(C(C)(C)C)c(O)c(C(C)(C)C)c1)Sc1cc(C(C)(C)C)c(O)c(C(C)(C)C)c1` [Probucol]?
Answer: rod outer segment growth distance Dg [1]: 0.84 ± 0.24 um; rod outer segment shedding distance Ds [2]: -0.5 ± 0.23 um

Question: Which “rod outer segment growth distance Dg” value [1] does the source give for `Nc1cccc2c1C(=O)N(C1CCC(=O)NC1=O)C2=O` (configuration not stated) [Pomalidomide] here?
Answer: The value was -0.39 ± 0.16 um.

Question: And the “rod outer segment shedding distance Ds” value [2]?
Answer: Its value is -0.56 ± 0.18 um.

Question: With `NCCCCCC(=O)O` [(6-) e-Aminocaproic acid] as the molecule, how does the “rod outer segment growth distance Dg” value [1] read?
Answer: Its value is 0.58 ± 0.18 um.

Question: And the “rod outer segment shedding distance Ds” value [2]?
Answer: Its value is 0.33 ± 0.19 um.

Question: How did the “rod outer segment growth distance Dg” value [1] turn out when `Cc1cnc(Nc2ccc(N3CCN(C)CC3)cc2)nc1Nc1cccc(S(=O)(=O)NC(C)(C)C)c1` was run?
Answer: The value was -1.03 ± 0.15 um.

Question: What about the “rod outer segment shedding distance Ds” value [2] of the same molecule?
Answer: The value was -0.08 ± 0.13 um.

Question: Which “rod outer segment growth distance Dg” value [1] does the source give for `NS(=O)(=O)c1ccc(NC(=O)Nc2ccc(F)cc2)cc1` here?
Answer: Its value is -0.33 ± 0.16 um.

Question: What about the “rod outer segment shedding distance Ds” value [2] of the same molecule?
Answer: The value was -0.03 ± 0.12 um.

Question: Which results are given for `O=S(=O)(c1cccc2cnccc12)N1CCCNCC1` [Fasudil (HA-1077) HCl]?
Answer: rod outer segment growth distance Dg [1]: -0.26 ± 0.15 um; rod outer segment shedding distance Ds [2]: -0.73 ± 0.17 um

Question: What does the source list for `OC(Cn1cncn1)(Cn1cncn1)c1ccc(F)cc1F` [Fluconazole]?
Answer: rod outer segment growth distance Dg [1]: 1.09 ± 0.19 um; rod outer segment shedding distance Ds [2]: -0.34 ± 0.19 um

Question: `COc1ccc(-c2oc3c(CC=C(C)C)c(O[C@@H]4O[C@H](CO)[C@@H](O)[C@H](O)[C@H]4O)cc(O)c3c(=O)c2O[C@@H]2O[C@@H](C)[C@H](O)[C@@H](O)[C@H]2O)cc1` [Icariin] was tested. Which “rod outer segment growth distance Dg” value [1] did it give?
Answer: Its value is 1.1 ± 0.43 um.

Question: What about the “rod outer segment shedding distance Ds” value [2] of the same molecule?
Answer: Its value is 0.42 ± 0.32 um.

Question: `CCNC(=O)[C@H]1O[C@@H](n2cnc3c(N)nc(NCCc4ccc(CCC(=O)O)cc4)nc32)[C@H](O)[C@@H]1O` was tested. Which “rod outer segment growth distance Dg” value [1] did it give?
Answer: Its value is 0.58 ± 0.27 um.

Question: What about the “rod outer segment shedding distance Ds” value [2] of the same molecule?
Answer: The value was 0.43 ± 0.35 um.

Question: Which results are given for `Cc1ncc(-c2ccnc(Nc3ccc(S(C)(=O)=O)cc3)n2)n1C(C)C`?
Answer: rod outer segment growth distance Dg [1]: -1.29 ± 0.19 um; rod outer segment shedding distance Ds [2]: 0.97 ± 0.11 um
